Experimental findings from the supplement of paper PMC7411640 are described below.

Structures are written as SMILES. Structures can show the parent of a compound that is named as a salt. This is one part of the list. Repeats in this data set agree poorly, so a single value says little.

The test system of this assay is MDA-MB-468. Nature of the assay: phospho-S6 immunofluorescence (DAPI-normalised), per-plate z-score; higher = higher phospho-S6 signal (less pathway suppression). The note with it: 24 h. Here is the method:
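GPCR-targeted compound library (MedChemExpress HY-L006) tested on MDA-MB-468 PTEN-null TNBC cells in 384-well plates at 0.1, 1 or 10 uM, combined with vehicle, GDC0941 450 nM or lapatinib 1 uM, for 24 h. Phospho-S6 (S240/244) immunofluorescence normalised to DAPI and expressed as a per-plate z-score; values are the mean of biological triplicates.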

The mark [1] stands for this setting: compound 0.1 µM, co-treatment: GDC0941 450 nM.
[2] abbreviates: compound 0.1 µM, co-treatment: lapatinib 1 uM.
Setting [3] is: compound 0.1 µM, co-treatment: vehicle.
Where [4] appears, read: compound 1 µM, co-treatment: GDC0941 450 nM.
Where [5] appears, read: compound 1 µM, co-treatment: lapatinib 1 uM.
The mark [6] stands for this setting: compound 1 µM, co-treatment: vehicle.

Turning to `CCCN(CCC)CCc1cccc2c1CC(=O)N2` [Ropinirole (hydrochloride)], the “phospho-S6 immunofluorescence (z-score)” value by setting is: under setting [1], 0.47; under setting [2], -0.58; under setting [3], -0.26; under setting [4], 0.29; under setting [5], 0.27; under setting [6], 0.23.
In the case of `CN1C2CCCC1CC(NC(=O)c1nn(C)c3ccccc13)C2` (centres undefined) [Granisetron (Hydrochloride)], the “phospho-S6 immunofluorescence (z-score)” value was -0.11 under setting [1]; -0.57 under setting [2]; -0.61 under setting [3]; 0.3 under setting [4]; 0.16 under setting [5]; 0.15 under setting [6].
Turning to `CCNC1(C(N)=O)CCN(c2ncnc3c2nc(-c2ccccc2Cl)n3-c2ccc(Cl)cc2)CC1` [Otenabant], the “phospho-S6 immunofluorescence (z-score)” value is -0.32 under setting [1]; 0.54 under setting [2]; 0.21 under setting [3]; -0.9 under setting [4]; -0.14 under setting [5]; 0.88 under setting [6].
As for `COc1ccc(/C=C/C(=O)Nc2ccccc2C(=O)O)cc1OC` [Tranilast], the “phospho-S6 immunofluorescence (z-score)” value is 2.16 under setting [1]; -0.9 under setting [2]; -0.03 under setting [3]; 1.88 under setting [4]; -0.19 under setting [5]; 0.23 under setting [6].
Turning to `CN1CCC(=C2c3ccccc3C=Cc3ccccc32)CC1` [Cyproheptadine (hydrochloride)], the “phospho-S6 immunofluorescence (z-score)” value by setting is: under setting [1], 0.01; under setting [2], 0.26; under setting [3], 0.74; under setting [4], 0.98; under setting [5], -0.07; under setting [6], 0.54.
As to `CCCc1c2oc(C(=O)O)cc(=O)c2cc2c(=O)cc(C(=O)O)n(CC)c12` [Nedocromil], the “phospho-S6 immunofluorescence (z-score)” value by setting is: under setting [1], -0.3; under setting [2], -0.6; under setting [3], -1.12; under setting [4], 0.32; under setting [5], -1.27; under setting [6], 0.08.
Turning to `CS(=O)(=O)c1cc(F)cc2c3c(n(Cc4ccc(Cl)cc4)c12)[C@@H](CC(=O)O)CC3` [Laropiprant], the “phospho-S6 immunofluorescence (z-score)” value came to 1.31 under setting [1]; 0.6 under setting [2]; 1.7 under setting [3]; 1.63 under setting [4]; 0.74 under setting [5]; 1.75 under setting [6].
With `O=C(/C=C/c1ccc(Cl)cc1)N1CCC2(CC1)CN(Cc1ccc(Cl)c(Cl)c1)C(=O)O2`, the “phospho-S6 immunofluorescence (z-score)” value by setting is: under setting [1], -1.65; under setting [2], -1.75; under setting [3], -1.16; under setting [4], -0.28; under setting [5], -0.71; under setting [6], -1.55.
For `CCCCOc1ccc(C(=O)Nc2ccc(F)cc2F)cc1`, the “phospho-S6 immunofluorescence (z-score)” value is, setting by setting: under setting [1], 0.41; under setting [2], 0.4; under setting [3], 1.4; under setting [4], 2.18; under setting [5], -1.36; under setting [6], 0.99.
Consider `Cc1cc(C(C)(C)C)c(O)c(C)c1CC1=NCCN1` [Oxymetazoline (hydrochloride)], for which the “phospho-S6 immunofluorescence (z-score)” value is, setting by setting: under setting [1], -0.42; under setting [2], 0.23; under setting [3], -1.31; under setting [4], 0.22; under setting [5], -0.42; under setting [6], -0.91.
Turning to `Oc1ccc(C2CNCCc3c2cc(O)c(O)c3Cl)cc1` (centres undefined) [Fenoldopam (mesylate)], the “phospho-S6 immunofluorescence (z-score)” value runs as follows: under setting [1], 0.14; under setting [2], -0.75; under setting [3], -0.5; under setting [4], 2.29; under setting [5], 0.31; under setting [6], -0.11.
Consider `CCCCCCOc1nsnc1C1=CCCN(C)C1` [Xanomeline (oxalate)], for which the “phospho-S6 immunofluorescence (z-score)” value under setting [1] was 0.52; the “phospho-S6 immunofluorescence (z-score)” value under setting [2] is 1.33; the “phospho-S6 immunofluorescence (z-score)” value under setting [3] was determined as 0.02; the “phospho-S6 immunofluorescence (z-score)” value under setting [4] is 0.15; the “phospho-S6 immunofluorescence (z-score)” value under setting [5] is -0.5; the “phospho-S6 immunofluorescence (z-score)” value under setting [6] stood at 0.34.
Turning to `Brc1c(NC2=NCCN2)ccc2nccnc12` [UK 14,304 (tartrate)], the “phospho-S6 immunofluorescence (z-score)” value came out at 2.07 under setting [1]; 0.5 under setting [2]; 1.81 under setting [3]; 1.11 under setting [4]; 0.87 under setting [5]; 1.86 under setting [6].
Take `O=C(NCCCN1CCC2(CC1)OCc1ccccc12)[C@H]1CCCN1Cc1ccccc1`: the “phospho-S6 immunofluorescence (z-score)” value is -0.39 under setting [1]; -0.26 under setting [2]; -0.5 under setting [3]; 0.46 under setting [4]; -0.96 under setting [5]; -1.28 under setting [6].
For the compound `CNC[C@H](O)c1cccc(O)c1` [(R)-(-)-Phenylephrine (hydrochloride)], the “phospho-S6 immunofluorescence (z-score)” value by setting is: under setting [1], 1.11; under setting [2], 0.82; under setting [3], 0.77; under setting [4], 0.85; under setting [5], 0.67; under setting [6], 0.87.
On to `O=C(O)COCCN1CCN(C(c2ccccc2)c2ccc(Cl)cc2)CC1` (centres undefined) [Cetirizine (dihydrochloride)], for which the “phospho-S6 immunofluorescence (z-score)” value was -0.41 under setting [1]; -0.16 under setting [2]; -0.79 under setting [3]; -0.04 under setting [4]; 0.09 under setting [5]; -0.31 under setting [6].
Take `CCC(N)(C(=O)O)c1ccc(C(=O)O)cc1` (centres undefined): the “phospho-S6 immunofluorescence (z-score)” value reads like this: under setting [1], -0.09; under setting [2], -1.11; under setting [3], -1.31; under setting [4], 0.2; under setting [5], -0.25; under setting [6], -0.72.
On to `CC(C)[C@H](NC(=O)[C@H](CCCN=C(N)N)NC(=O)[C@@H](N)CC(=O)O)C(=O)N[C@@H](Cc1ccc(O)cc1)C(=O)N[C@H](C(=O)N[C@@H](Cc1cnc[nH]1)C(=O)N1CCC[C@H]1C(=O)N[C@@H](Cc1ccccc1)C(=O)O)C(C)C` [Angiotensin II 5-valine], for which the “phospho-S6 immunofluorescence (z-score)” value is 0.83 under setting [1]; 0.91 under setting [2]; 0.55 under setting [3]; 0.99 under setting [4]; 1.87 under setting [5]; -0.11 under setting [6].
For `CNCC(O)c1ccc(O)c(O)c1` [L-Epinephrine], the “phospho-S6 immunofluorescence (z-score)” value runs as follows: under setting [1], 0; under setting [2], 1.93; under setting [3], -0.58; under setting [4], 0.41; under setting [5], 3.56; under setting [6], -0.06.
Regarding `CN(C)CC/C=C1/c2ccccc2COc2ccc(CC(=O)O)cc21` [Olopatadine (hydrochloride)], the “phospho-S6 immunofluorescence (z-score)” value was 0.86 under setting [1]; -0.06 under setting [2]; 0.31 under setting [3]; -0.06 under setting [4]; -0.72 under setting [5]; -0.46 under setting [6].
With `C=CCN1CCc2c(cc(O)c(O)c2Cl)C(c2ccccc2)C1` (centres undefined), the “phospho-S6 immunofluorescence (z-score)” value under setting [1] stood at 3.67; the “phospho-S6 immunofluorescence (z-score)” value under setting [2] is 1.42; the “phospho-S6 immunofluorescence (z-score)” value under setting [3] was found to be 2.13; the “phospho-S6 immunofluorescence (z-score)” value under setting [4] was determined as 2.02; the “phospho-S6 immunofluorescence (z-score)” value under setting [5] was determined as 2.02; the “phospho-S6 immunofluorescence (z-score)” value under setting [6] was 2.8.
Take `Cc1ccc(/C(=C\CN2CCCC2)c2cccc(/C=C/C(=O)O)n2)cc1` [Acrivastine]: the “phospho-S6 immunofluorescence (z-score)” value reads like this: under setting [1], -0.8; under setting [2], 0.68; under setting [3], 0.12; under setting [4], -1.03; under setting [5], 0.54; under setting [6], 1.
Consider `COc1ccccc1Oc1c(NS(=O)(=O)c2ccc(C(C)(C)C)cc2)nc(-c2ncccn2)nc1OCCO` [Bosentan (hydrate)], for which the “phospho-S6 immunofluorescence (z-score)” value runs as follows: under setting [1], 0.4; under setting [2], -0.34; under setting [3], -0.02; under setting [4], 0.7; under setting [5], 0.14; under setting [6], -0.1.
Take `CCOCCn1c(C2CCN(CCc3ccc(C(C)(C)C(=O)O)cc3)CC2)nc2ccccc21` [Bilastine]: the “phospho-S6 immunofluorescence (z-score)” value was -0.46 under setting [1]; -1.1 under setting [2]; 1.22 under setting [3]; -1.29 under setting [4]; -1.07 under setting [5]; -1.04 under setting [6].
